# Measurements published in PubChem BioAssay AID504834 (National Center for Advancing Translational Sciences (NCATS), 2011).
# In all, about 320,000 compounds went through this assay and about 22,000 (6.9%) were called active. Inconclusive means that the source gave no clear call. Such entries were picked first, then a sample of the others. The call rests on the fitted dose curve; in most records, active means well fitted inhibition curve with a large enough effect; inconclusive means small, poorly fitted or top-dose-only effect, or another doubt; inactive means no such curve, though single readings can be large or run the other way. Potencies beside an inconclusive call are fits to weak or partial responses and may not hold up.
# Assay: Primary qHTS for delayed death inhibitors of the malarial parasite plastid, 96 hour incubation
# Conditions: P. falciparum luciferase reporter growth; series mostly up to 28.7 µM
# In short: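 Two parasite generations (96 h, 37 C, 5% CO2) of compound exposure in infected erythrocytes (0.05% parasitemia, 2% hematocrit). Luciferase-reporter P. falciparum; decreased luminescence indicates inhibited growth, aimed at apicoplast-acting delayed death.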
# Potency means the concentration at half of the fitted maximal effect.
row,SMILES,Potency
1,CCOC(=O)c1c(S(=O)(=O)N2CCN(C3CCCCC3)CC2)c(C)n(C)c1C,"inconclusive: 14.7 µM [inhibitor, partial curve]"
2,Cc1ccc(N2C(=O)C3C4C=CC(CNC(=S)Nc5cccc(Cl)c5)(O4)C3C2=O)cc1 (stereo not given),"inconclusive: 5.22 µM [inhibitor, single point]"
3,NC(=O)C1(N2CCCCC2)CCN(C2CC(=O)NC2=O)CC1 (stereo not given),"inconclusive: 14.7 µM [inhibitor, partial curve, poor fit]"
4,CC(=O)Nc1ccc2c(c1)nc(C)n2-c1ccccc1,"inconclusive: 14.7 µM [inhibitor, single point]"
5,CN(CCOc1ccc(Cl)cc1)C(=O)c1ccccc1SCC(=O)N1CCCC1,"inconclusive: 10.4 µM [inhibitor, single point]"
6,CC(=O)c1cccc(NC(=O)CCCCCn2nnc3ccccc3c2=O)c1,active: 3.29 µM
7,CCCCC(=O)Nc1cc(C)c2c(=O)oc3ccccc3c2n1,"inconclusive: 14.7 µM [inhibitor, partial curve, poor fit]"
8,N=c1n(Cc2ccccc2Cl)c2ccccc2n1CC(O)c1ccco1 (stereo not given),inactive
9,O=C(CC(c1ccccc1)c1cc(Cl)ccc1O)NCCN1CCOCC1 (stereo not given),"inconclusive: 11.7 µM [inhibitor, single point]"
10,Cn1cccc1/C=N/NC(=O)Cn1cnc2ccccc21,"inconclusive: 1.47 µM [inhibitor, full curve, poor fit]"
11,NCCCCCC(=O)N/N=C/c1coc2ccccc2c1=O,inactive
12,CCOC(=O)COc1ccc(Br)cc1C1NC(=O)NC(C)=C1C(=O)NCc1ccccc1 (stereo not given),"inconclusive: 0.0657 µM [inhibitor, full curve, poor fit]"
13,Cc1ccc(NCc2nnc(SCC(=O)NCCc3ccccc3)n2C)cc1,inactive
14,CCOC(=O)c1cc(-c2ccccc2C)nn1Cc1cc(C)no1,"inconclusive: 18.5 µM [inhibitor, single point]"
15,N#CC(C(=O)Nc1ccc(Cl)c(Cl)c1)=C1Nc2ccccc2N1,active: 2.62 µM
16,O=C1NC(c2ccccc2)Oc2ccccc21 (stereo not given),"inconclusive: 9.28 µM [inhibitor, partial curve, poor fit]"
17,O=C(CSc1ncnc2sc3c(c12)CCC3)NCC1CCCO1 (stereo not given),"inconclusive: 13.1 µM [inhibitor, single point]"
18,COc1cccc(C2=CC(=O)C[C@H](c3ccc4c(c3)OCO4)C2)c1OC,"inconclusive: 13.1 µM [inhibitor, single point]"
19,NC(=O)C1CCN(C(=O)CCSCc2ccccc2)CC1,"inconclusive: 11.7 µM [inhibitor, single point]"
20,COc1ccc(OCC(=O)NCCCNC(=O)COc2ccc(OC)cc2)cc1,"inconclusive: 14.7 µM [inhibitor, partial curve, poor fit]"
21,CCC(Sc1nc2ncnc(N)c2[nH]1)C(=O)O (stereo not given),"inconclusive: 18.5 µM [inhibitor, partial curve, poor fit]"
22,COCC(=O)N/N=C\c1cccc(OC)c1OC/C=C/c1ccccc1,"inconclusive: 18.5 µM [inhibitor, single point]"
23,O=C(COC(=O)c1cc(S(=O)(=O)N2CCCC2)ccc1O)Nc1ccc(S(=O)(=O)N2CCOCC2)cc1,"inconclusive: 0.828 µM [inhibitor, full curve]"
24,O=C1C=C(c2ccc(F)cc2OCc2ccccc2)C[C@@H](c2ccc(F)cc2)C1,"inconclusive: 18.5 µM [inhibitor, single point]"

row,SMILES,Potency
1,CCCN(CC(=O)Nc1ccccc1C)C(=O)C1CC(=O)N(c2cccc(C)c2C)C1 (stereo not given),inactive
2,COc1ccc(N(CC(=O)N2CCCCCC2)S(=O)(=O)c2ccccc2[N+](=O)[O-])c(OC)c1,inactive
3,COC(=O)C(NC(=O)c1ccc(F)cc1)(Nc1ncc(S(=O)(=O)c2ccc([N+](=O)[O-])cc2)s1)C(F)(F)F (stereo not given),active: 13.1 µM
4,COc1ccc2nc(Nc3nc(CSc4nnc(C)s4)cc(=O)[nH]3)nc(C)c2c1,"inconclusive: 18.5 µM [inhibitor, single point]"
5,OC(Cn1ccnc1)c1ccc(Cl)cc1Cl (stereo not given),active: 9.28 µM
6,CCCCn1c(N)c(N(CCOC)C(=O)CSCc2ccc(C)cc2)c(=O)[nH]c1=O,inactive
7,CCOc1ccc(NC(=O)Nc2cc(OCC(F)(F)F)cc(OCC(F)(F)F)c2)cc1,active: 1.85 µM
8,COc1cc(C=O)ccc1OCC(=O)Nc1cccc(S(=O)(=O)N(C)c2ccccc2)c1,"inconclusive: 4.15 µM [inhibitor, full curve]"
9,O=C1N(c2ccccc2C(F)(F)F)OC1(Cc1ccccc1)c1ccccc1 (stereo not given),"inconclusive: 2.33 µM [inhibitor, full curve, poor fit]"
10,CCOc1cc(-n2cnnn2)c(OCC)cc1NC(=O)c1cnccn1,active: 5.22 µM
11,CCNC(C)Cc1cccc(C(F)(F)F)c1 (stereo not given),active: 13.5 µM
12,COC(=O)CCC(=O)NC(=S)Nc1ccccc1F,inactive
13,CCOc1ncccc1C(=O)Nc1ccc(F)c(F)c1,inactive
14,CC1CCCC(NC(=O)C2N(CCCN3CCCC3)C(=O)C3C(C(=O)Nc4ccc(Cl)cc4)C4C=CC32O4)C1C (stereo not given),active: 5.86 µM
15,Cc1ccc(OCc2ccccc2Br)c([N+](=O)[O-])n1,inactive
16,Cc1ccccc1NC(=O)c1nn(C)c2c1CS(=O)(=O)c1ccccc1-2,active: 13.1 µM
17,Cc1ccccc1C1NC(c2ccccc2C)C(C)C(=O)C1C (stereo not given),"inconclusive: 7.38 µM [inhibitor, partial curve, poor fit]"
18,CC(=O)Nc1ccc(C2=NNC(=Nc3ccc(S(=O)(=O)N4CCOCC4)cc3)SC2)cc1,active: 11.7 µM
19,O=C(Nc1cc([N+](=O)[O-])ccc1F)c1ccc2c(c1)OCCO2,"inconclusive: 16.5 µM [inhibitor, single point]"
20,COc1ccccc1C(=O)Nc1ccnn1C1CCN(Cc2ccc3nonc3c2)CC1,"inconclusive: 4.15 µM [inhibitor, single point]"
21,O=C(CSc1ccc(-c2ccco2)nn1)Nc1cccc(F)c1,"inconclusive: 14.7 µM [inhibitor, single point]"
22,CON/C=C(\C=Nc1ccc(F)cc1)c1ncc(C(F)(F)F)cc1Cl,"inconclusive: 18.5 µM [inhibitor, single point]"
23,O=C(OCC1COc2ccccc2O1)c1c(F)cccc1F (stereo not given),"inconclusive: 4.15 µM [inhibitor, single point]"
24,O=C(COc1cc2oc(=O)c3c(c2cc1Cl)CCC3)NCC(O)c1ccccc1 (stereo not given),active: 13.1 µM

# Look-ups from the results shown.
# Potency, `Cc1ccc(OCc2ccccc2Br)c([N+](=O)[O-])n1` is entered as inactive
# Potency, `COC(=O)C(NC(=O)c1ccc(F)cc1)(Nc1ncc(S(=O)(=O)c2ccc([N+](=O)[O-])cc2)s1)C(F)(F)F` (stereo not given) is entered as active: 13.1 µM
# Potency, `CCCCn1c(N)c(N(CCOC)C(=O)CSCc2ccc(C)cc2)c(=O)[nH]c1=O` is entered as inactive
# Potency, `COc1cc(C=O)ccc1OCC(=O)Nc1cccc(S(=O)(=O)N(C)c2ccccc2)c1` is entered as inconclusive: 4.15 µM [inhibitor, full curve]

# Next results

row,SMILES,Potency
1,NS(=O)(=O)c1cccc(NC(=O)CCc2ccc(S(=O)(=O)N3CCOCC3)cc2)c1,"inconclusive: 8.28 µM [inhibitor, partial curve]"
2,COc1ccc(CCn2c(=N)c(S(=O)(=O)c3ccc(Cl)cc3)cc3c(=O)n4ccccc4nc32)cc1,active: 2.62 µM
3,N#Cc1ccc(OCC(=O)Nc2nc(-c3cccnc3)cs2)cc1,"inconclusive: 18.5 µM [inhibitor, single point]"
4,CCCCSc1nnc(-c2ccc(NC(=O)CC)cc2)n1C,"inconclusive: 4.15 µM [inhibitor, single point]"
5,CC(C)c1nnc(NC(=O)C2CCCN2C(=O)Nc2ccccc2[N+](=O)[O-])s1 (stereo not given),inactive
6,NC(=O)c1nsc(C(=O)N(c2ccc(F)cc2)C(C(=O)NCC2CCCO2)c2c[nH]c3ccccc23)c1N (stereo not given),"inconclusive: 18.5 µM [inhibitor, single point]"
7,Cc1nc2ccccc2c2oc(C(=O)NCCCN3CCCC(C)C3)cc12 (stereo not given),inactive
8,CCCCC(=O)NC(=S)Nc1cccc(NC(=O)c2ccco2)c1,inactive
9,CC(C)c1onc(C(=O)N(C)Cc2ccccc2)c1[N+](=O)[O-],"inconclusive: 2.94 µM [inhibitor, partial curve, poor fit]"
10,CC(Oc1ccc(Cl)cc1Cl)C(=O)NNC(=O)C(=O)N1CCCC1 (stereo not given),inactive
11,COc1ccccc1CC(=O)Nc1cccc(S(=O)(=O)N2CCOCC2)c1,"inconclusive: 18.5 µM [inhibitor, single point]"
12,CC(C)c1ccc(NC(=O)C2CCCCN2S(=O)(=O)c2ccccc2)cc1 (stereo not given),"inconclusive: 18.5 µM [inhibitor, single point]"
13,CCc1ccc(NC(=S)/N=C(\N)Nc2nc(C)c3cc(CC)ccc3n2)cc1,"inconclusive: 1.04 µM [inhibitor, full curve, poor fit]"
14,COc1cc(-c2nc3cnccn3c2NC(C)(C)CC(C)(C)C)ccc1O,"inconclusive: 8.28 µM [inhibitor, partial curve, poor fit]"
15,CC(Sc1ccccc1)C(=O)Nc1ccc(N2CCOCC2)cc1 (stereo not given),inactive
16,CC(=O)C1=C(O)C(=O)N(Cc2ccco2)C1c1ccc2c(c1)OCO2 (stereo not given),"inconclusive: 16.5 µM [inhibitor, single point]"
17,COc1cc(OC)cc(C(=O)N2CC(=O)Nc3ccccc32)c1,"inconclusive: 9.28 µM [inhibitor, partial curve, poor fit]"
18,Cc1cc(-c2ccccc2)nc(N/N=C/c2ccc([N+](=O)[O-])cc2)n1,"inconclusive: 1.47 µM [inhibitor, partial curve, poor fit]"
19,Cc1cccc(NC(=S)NCc2ccc(F)cc2)c1,inactive
20,CCCC(=O)N(c1ccc(OC)cc1)C1C=CS(=O)(=O)C1 (stereo not given),inactive
21,COc1ccc(CC(=O)NCC(=O)N=Nc2c(O)[nH]c3ccccc23)cc1,inactive
22,O=C(CSCc1ccccc1)N/N=C/c1ccccc1OCc1ccccc1,"inconclusive: 18.5 µM [inhibitor, single point]"
